# Source: paper PMC6677890
# Amino acid sequences for entries named in this document (tags omitted). A change or cut given only in a name is not applied to a line headed by its entry.
# UniProt Q9SZR6: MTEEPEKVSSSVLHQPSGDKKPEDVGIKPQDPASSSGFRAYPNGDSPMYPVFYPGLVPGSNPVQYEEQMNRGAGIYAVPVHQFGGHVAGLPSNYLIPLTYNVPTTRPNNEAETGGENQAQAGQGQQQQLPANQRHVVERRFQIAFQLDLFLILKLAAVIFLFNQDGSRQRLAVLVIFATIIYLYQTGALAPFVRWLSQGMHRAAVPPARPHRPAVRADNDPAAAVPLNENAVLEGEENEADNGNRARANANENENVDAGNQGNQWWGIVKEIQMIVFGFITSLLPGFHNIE
# UniProt F4JP55: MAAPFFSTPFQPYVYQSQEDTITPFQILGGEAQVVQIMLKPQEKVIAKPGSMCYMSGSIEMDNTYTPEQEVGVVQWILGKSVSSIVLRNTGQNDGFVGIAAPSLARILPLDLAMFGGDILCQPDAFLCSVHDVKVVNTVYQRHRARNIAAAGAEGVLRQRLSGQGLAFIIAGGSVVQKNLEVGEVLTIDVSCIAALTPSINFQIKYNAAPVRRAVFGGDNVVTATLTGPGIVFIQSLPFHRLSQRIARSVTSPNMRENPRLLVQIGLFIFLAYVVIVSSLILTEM
# UniProt F4JX49: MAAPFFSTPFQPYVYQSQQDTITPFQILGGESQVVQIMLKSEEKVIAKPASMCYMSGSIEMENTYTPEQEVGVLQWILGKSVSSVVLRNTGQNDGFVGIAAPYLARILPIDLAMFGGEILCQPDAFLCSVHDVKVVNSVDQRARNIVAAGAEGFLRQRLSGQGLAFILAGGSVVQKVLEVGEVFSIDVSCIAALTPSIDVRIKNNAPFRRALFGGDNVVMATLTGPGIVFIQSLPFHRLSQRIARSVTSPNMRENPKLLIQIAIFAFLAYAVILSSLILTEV
# UniProt P41377: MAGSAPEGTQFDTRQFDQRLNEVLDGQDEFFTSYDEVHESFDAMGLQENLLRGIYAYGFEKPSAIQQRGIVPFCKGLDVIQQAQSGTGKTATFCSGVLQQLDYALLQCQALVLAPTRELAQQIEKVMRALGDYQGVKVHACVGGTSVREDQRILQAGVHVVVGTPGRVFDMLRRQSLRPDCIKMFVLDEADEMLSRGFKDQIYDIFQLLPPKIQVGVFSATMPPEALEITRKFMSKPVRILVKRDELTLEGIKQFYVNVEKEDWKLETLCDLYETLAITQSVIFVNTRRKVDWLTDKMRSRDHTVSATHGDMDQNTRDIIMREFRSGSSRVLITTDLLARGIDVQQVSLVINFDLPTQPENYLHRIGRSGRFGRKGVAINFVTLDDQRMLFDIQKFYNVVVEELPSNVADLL
# Results are given in words; binding and its absence hold for the method and conditions named. In cells and extracts the contact can be indirect. Here binding means that the protein was enriched with, or labelled near, the bait; the list need not be complete. For some assays here: Where a sequence is shown, tags or fusion partners need not be part of it.
# T1: Hrd1a-GFP (Arabidopsis) (UniProt Q9LW77)
# T1 sequence: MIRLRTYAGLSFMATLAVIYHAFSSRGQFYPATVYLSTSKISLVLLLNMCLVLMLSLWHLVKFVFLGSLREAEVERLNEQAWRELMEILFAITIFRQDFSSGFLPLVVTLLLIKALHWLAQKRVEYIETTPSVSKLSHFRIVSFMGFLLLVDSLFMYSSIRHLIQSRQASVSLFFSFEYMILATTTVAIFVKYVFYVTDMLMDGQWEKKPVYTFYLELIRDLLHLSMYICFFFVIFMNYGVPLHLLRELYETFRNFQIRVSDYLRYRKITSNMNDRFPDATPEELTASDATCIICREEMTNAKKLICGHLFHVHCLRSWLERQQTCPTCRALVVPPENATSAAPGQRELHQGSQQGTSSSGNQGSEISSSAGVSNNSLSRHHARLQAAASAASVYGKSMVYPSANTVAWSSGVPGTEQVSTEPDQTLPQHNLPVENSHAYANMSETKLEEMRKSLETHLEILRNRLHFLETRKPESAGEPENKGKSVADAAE
# What was measured:
# Experiment in all cases: affinity purification with mass spectrometry; total proteins or microsomal fraction of transgenic Arabidopsis seedlings; anti-GFP mAb-agarose, anti-MYC or anti-HA agarose; LC-MS/MS; non-transgenic wild type as negative control
# [1] = target: MYC-tagged EBS7 (Arabidopsis) (UniProt Q9SZR6)
# Hrd1a-GFP (Arabidopsis) = target: T1, Hrd1a-GFP (Arabidopsis)
# [2] = target: HA-tagged EBS7 (Arabidopsis)
molecule,measurement,setting,value
Protein Associated With Hrd1-1 (PAWH1) (from UniProt F4JP55),binding,[1],binds
Protein Associated With Hrd1-2 (PAWH2) (from UniProt F4JX49),binding,[1],binds
EBS7 (EMS-mutagenized Bri1 Suppressor7) (from UniProt Q9SZR6),binding,Hrd1a-GFP (Arabidopsis),binds
translational initiation factor EIF4A (At1g54270) (from UniProt P41377 1-412),binding,[1],binds
same,binding,Hrd1a-GFP (Arabidopsis),binds
calcium-dependent lipid-binding protein (At3g14590) (Arabidopsis (endogenous in seedlings)),binding,Hrd1a-GFP (Arabidopsis),binds
"Hrd1a (protein, UniProt Q9LW77 1-492) MIRLRTYAGLSFMATLAVIYHAFSSRGQFYPATVYLSTSKISLVLLLNMCLVLMLSLWHLVKFVFLGSLREAEVERLNEQAWRELMEILFAITIFRQDFSSGFLPLVVTLLLIKALHWLAQKRVEYIETTPSVSKLSHFRIVSFMGFLLLVDSLFMYSSIRHLIQSRQASVSLFFSFEYMILATTTVAIFVKYVFYVTDMLMDGQWEKKPVYTFYLELIRDLLHLSMYICFFFVIFMNYGVPLHLLRELYETFRNFQIRVSDYLRYRKITSNMNDRFPDATPEELTASDATCIICREEMTNAKKLICGHLFHVHCLRSWLERQQTCPTCRALVVPPENATSAAPGQRELHQGSQQGTSSSGNQGSEISSSAGVSNNSLSRHHARLQAAASAASVYGKSMVYPSANTVAWSSGVPGTEQVSTEPDQTLPQHNLPVENSHAYANMSETKLEEMRKSLETHLEILRNRLHFLETRKPESAGEPENKGKSVADAAE",binding,[1],binds
same,binding,[2],binds
"EBS6 (protein, UniProt Q8GWH3 24-282) DQIFPAHLVGTFSRNNREPKYKIEFLPEDSPFHPGDNLESMVMLDKHGNRFLCYLPKEEKATSGWTSSQQNISTVMMETQQLVKLKTPDELLQPLSEKCLFRQEGWWSYEFCHQKYVRQLHVEDENKIVQEFFLGTFDPEATAAFNQTVSDASTDASQRYHSHVYTNGTTCDLTGSPREVEVRFVCAETRAMVTSITELSTCKYALTVQCPTLCKHPLFQLEKPVSHTIHCNAIPVEEDATRNKEEQAVDESPKMIADS",binding,[1],binds
same,binding,[2],binds
same,binding,Hrd1a-GFP (Arabidopsis),binds
"germin-like protein (At5g20630) (protein, UniProt P94072 21-211) SVQDFCVADPKGPQSPSGYSCKNPDQVTENDFAFTGLGTAGNTSNIIKAAVTPAFAPAYAGINGLGVSLARLDLAGGGVIPLHTHPGASEVLVVIQGTICAGFISSANKVYLKTLNRGDSMVFPQGLLHFQLNSGKGPALAFVAFGSSSPGLQILPFALFANDLPSELVEATTFLSDAEVKKLKGVLGGTN",binding,[1],binds
same,binding,[2],binds
same,binding,Hrd1a-GFP (Arabidopsis),binds
